Source: PubChem BioAssay AID652243 (Drosophila RNAi Screening Center, 2013)
The deposit covers about 24,000 reagents; below is a random part of those with a known target gene and a result. Of all reagents, 246 (1%) are marked active. 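Plates not normalised; calls are printed but the firefly/Renilla ratio behind them is not deposited; fold cut for lowering reported inconsistently.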 Raw values vary from plate to plate and are shown uncorrected. Reagents against one gene are numbered here. No sequences are given here. Not stated in the record: the amount of reagent.

- Assay: 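Knock-downs that decrease or increase androgen receptor reporter signal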 (primary screen)
- System: Drosophila S2R+ cells
- Reagent: long dsRNA against Drosophila genes
- Duration: 72 h (48 h, then 24 h hormone)
- Conditions: synthetic androgen R1881 at 10 nM for 24 h
- Measured: 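Firefly light from an androgen-responsive reporter and Renilla control light per well, raw and unnormalised, for each of two replicates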
- Reading the numbers: firefly reporter light: higher = more light from androgen-responsive reporter; Renilla control light: higher = more constitutive control signal (cell number, transfection)
- Active means: 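Hit when the log firefly-to-Renilla ratio dropped or increased by a fixed fold versus the mean of GFP or LacZ controls across duplicate plates; lowering cut given as 1.5 and as 3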
- Meaning of the calls: active = hit: reporter lowered or raised; inactive = no hit

predicted target	reagent no.	firefly reporter light, replicate 1	firefly reporter light, replicate 2	Renilla control light, replicate 1	Renilla control light, replicate 2	call
Nhe2 (GeneID 35376)	1	80821	1.01e5	1.19e6	1.12e6	inactive
Nhe2 (GeneID 35376)	2	1.98e5	1.84e5	1.71e6	1.81e6	inactive
CG15522 (GeneID 43546)	1	1.73e5	1.11e5	1.68e6	1.92e6	inactive
CG15522 (GeneID 43546)	2	6.19e5	6.59e5	1.81e6	1.81e6	inactive
CG8841 (GeneID 36336)	1	1.05e6	1.12e6	9.98e5	1.29e6	inactive
spab (GeneID 35901)	1	3.37e5	2.27e5	2.38e6	2.01e6	inactive
Boh2 (GeneID 34559)	1	2.24e5	2.42e5	1.40e6	1.61e6	inactive
CG9628 (GeneID 39593)	1	8.99e5	6.38e5	2.08e6	1.81e6	inactive
CG9628 (GeneID 39593)	2	3.91e5	3.22e5	5.75e5	6.04e5	inactive
foi (GeneID 38976)	1	1.66e5	1.59e5	2.17e6	2.03e6	inactive
foi (GeneID 38976)	2	2.58e5	4.35e5	6.91e5	6.91e5	inactive
CG6503 (GeneID 50079)	1	2.22e5	2.58e5	3.21e6	3.07e6	inactive
CG6503 (GeneID 50079)	2	4.29e5	6.56e5	1.63e6	1.63e6	inactive
CG31627 (GeneID 318860)	1	1.02e6	9.98e5	2.28e6	1.67e6	inactive
CG10417 (GeneID 35492)	1	7.78e5	7.70e5	2.09e6	2.09e6	inactive
CG10417 (GeneID 35492)	2	2.26e5	2.47e5	4.89e5	7.63e5	inactive
CG10417 (GeneID 35492)	3					inactive
DIP-beta (GeneID 33125)	1	2.95e5	1.93e5	9.16e5	7.37e5	inactive
DIP-beta (GeneID 33125)	2	1.96e5	1.31e5	3.89e5	2.87e5	inactive
DIP-beta (GeneID 33125)	3	3.31e5	3.04e5	3.80e5	3.03e5	inactive
DIP-beta (GeneID 33125)	4	4.41e5	6.03e5	1.65e6	1.64e6	inactive
CAHbeta (GeneID 41070)	1	72611	50624	2.93e5	2.99e5	inactive
CG5504 (GeneID 48844)	1	3.39e5	6.60e5	7.81e5	1.52e6	inactive
CG7963 (GeneID 41001)	1	94073	55577	2.18e6	1.44e6	inactive
